The test concerns B6C3F1 mice, B16 melanoma ip, median survival T/C. Description: NCI In Vivo Anticancer Drug Screen. Data for tumor model B16 Melanoma (intraperitoneal) in B6C3F1 mice. The conditions noted are these: T/C endpoint: median survival time, schedule: Q01DX009 (ip), higher T/C = longer survival. How it is done: The antitumor activity of compounds was measured in mice bearing transplantable tumors. Survival or tumor size were measured and the results are expressed as the measurement made in the treated group (T) divided by the measurement made in the vehicle treated control group (C). The tumor model used in this assay is B16 Melanoma (intraperitoneal) in B6C3F1 mice

[1] abbreviates: dose: 200.0 mg/kg/injection, vehicle: saline with Tween-80.
Setting [2] is: dose: 400.0 mg/kg/injection, vehicle: saline with Tween-80.
The mark [3] stands for this setting: dose: 25.0 mg/kg/injection, vehicle: water.
Setting [4] is: dose: 100.0 mg/kg/injection, vehicle: saline with Tween-80.
Setting [5] is: dose: 200.0 mg/kg/injection, vehicle: Klucel (hydroxypropylcellulose) (HPC).
Where [6] appears, read: dose: 400.0 mg/kg/injection, vehicle: Klucel (hydroxypropylcellulose) (HPC).
[7] abbreviates: dose: 50.0 mg/kg/injection, vehicle: Klucel (hydroxypropylcellulose) (HPC).

The list does not hold the whole screen: it gathers tests that were run many times, whatever their T/C, doses with no T/C, and many T/C values between a quarter and a half above the control. Further doses and runs are listed elsewhere. T/C: endpoint of the treated group in % of that of the vehicle group. Some doses have a count of surviving animals in place of a T/C: the source holds a T/C of zero for them, seemingly a mark for toxic or unscored doses. Some survivor counts are full or nearly so, which does not show that the dose was tolerated: survival well below the control is almost never listed, so the zero probably covers shortened survival too. Survivors were counted at the toxicity check, usually on the fifth day, unless a day is given; later deaths do not show. Schedule codes are those of the source, read here as Q, the interval in days (D) or hours (H), X, the number of doses. Some entries hold several experiments; their values stand side by side, smallest first. Marks such as (2×) give the number of equal values in this list. Where survival is the endpoint, this PubChem deposit counts one and a half times the control or more as active, and values a quarter to a half above the control carry no call in these data; other NCI protocols may use other cut-offs. Some T/C values are followed by the survivors on the day toxicity was checked, most often the fifth; where none is given, no animal had died by that day.

Consider `Clc1ccc2nnnn2n1`, for which the T/C (dose: 12.5 mg/kg/injection, vehicle: saline with Tween-80) is 126 % of control; the T/C (dose: 100.0 mg/kg/injection, vehicle: saline with Tween-80, evaluated on day 45) is 134 % of control [9 of 10 alive]; the T/C (dose: 100.0 mg/kg/injection, vehicle: saline with Tween-80, evaluated on day 60) was 137 % of control; the T/C under setting [1] was 134 % of control [8 of 10 alive]. Also, the survivor count by setting is: under setting [1], 5 of 10; under setting [2], 4 of 10, 6 of 10, 7 of 10.
As for `C=CCCC(=O)CCCC(=O)O[C@@H]1[C@@H]2[C@H](CC1(C)C)[C@H](O)[C@@]13O[C@@H]1[C@H](O)[C@@]1(CO1)[C@@]23C`, the survivor count (dose: 100.0 micrograms/kg/injection, vehicle: Klucel (hydroxypropylcellulose) (HPC)) is on record as 10 of 10.
Turning to `CC1=C(CC/C(C)=C/CCC2=CCC(C3=CC(=O)OC3O)OC2O)C(C)(C)CCC1` (stereo not given), the survivor count (dose: 12.0 mg/kg/injection, vehicle: Klucel (hydroxypropylcellulose) (HPC)) is on record as 10 of 10.
For the compound `O=C1NC(=O)C2C3C=CC(C12)C1C2C(=O)NC(=O)C2C31` (stereo not given), the T/C (dose: 50.0 mg/kg/injection, vehicle: saline with Tween-80) is 139 % of control. Moreover, the survivor count runs as follows: (dose: 91.4 mg/kg/injection, vehicle: water) 7 of 9; under setting [1], 7 of 10 and 8 of 8; under setting [2], 1 of 10 and 3 of 10.
Regarding `COC1=C(C)C(=O)C2=C(C1=O)C1C3CC4=C(C(=O)C(OC)=C(C)C4=O)C(CNC(=O)C(C)=O)N3C(C#N)C(C2)N1C` (stereo not given), the survivor count (dose: 2.0 mg/kg/injection, vehicle: Klucel (hydroxypropylcellulose) (HPC)) is 5 of 10 and 10 of 10; the survivor count (dose: 4.0 mg/kg/injection, vehicle: Klucel (hydroxypropylcellulose) (HPC)) was 0 of 10.
With `Cn1cnc([N+](=O)[O-])c1Sc1ncn[nH]1`, the survivor count is 7 of 10 (dose: 400.0 mg/kg/injection, vehicle: saline) and 0 of 10 (dose: 400.0 mg/kg/injection, vehicle: suspension in saline).
In the case of `CNC(=O)c1cccc2c(Nc3ccc(NS(C)(=O)=O)cc3OC)c3cccc(C)c3nc12`, the T/C reads like this: (dose: 1.5 mg/kg/injection, vehicle: water) 133 % of control [9 of 10 alive]; (dose: 1.56 mg/kg/injection, vehicle: water) 125 % of control; (dose: 3.12 mg/kg/injection, vehicle: water) 139 % of control. Moreover, the survivor count runs as follows: (dose: 6.0 mg/kg/injection, vehicle: water) 10 of 10; (dose: 12.0 mg/kg/injection, vehicle: water) 9 of 10; under setting [3], 6 of 10.
As for `C/C(=N\NC(N)=O)c1cccc(/C(C)=N/NC(N)=O)n1`, the survivor count under setting [4] is reported as 10 of 10 and the survivor count under setting [1] is 10 of 10.
As for `COC(=O)[C@@]12OC[C@]34[C@H]([C@@H](O)[C@@H]1O)[C@@]1(C)CC(=O)C(O)=C(C)[C@@H]1C[C@H]3OC(=O)[C@H](OC(=O)/C=C(/C)C(C)(C)O)[C@@H]24`, the T/C is 128 % of control (dose: 1.0 mg/kg/injection, vehicle: saline + alcohol); 131 and 132 % of control (dose: 2.0 mg/kg/injection, vehicle: saline + alcohol); 131 and 137 % of control (dose: 4.0 mg/kg/injection, vehicle: saline + alcohol); 148 % of control (dose: 8.0 mg/kg/injection, vehicle: saline + alcohol).
`O=NN(CCCl)C(=O)NCCO`: the T/C (dose: 24.0 mg/kg/injection, vehicle: water) was 146 % of control. In addition, the survivor count reads like this: under setting [3], 10 of 10; (dose: 50.0 mg/kg/injection, vehicle: water) 10 of 10.
As to `Cc1ccc(C)c2c1CCC2C` (stereo not given), under setting [1], the survivor count was 10 of 10.
With `O=C1C=CC(=Nc2ccc3c(c2)C(Br)c2ccccc2-3)O1` (stereo not given), for the setting “dose: 20.0 mg/kg/injection, vehicle: saline”, the survivor count is given as 10 of 10.
In the case of `CC(C)C(NC(=O)OC(C)(C)C)C(=O)O` (stereo not given), the survivor count under setting [5] is recorded as 10 of 10 and the survivor count under setting [6] is 4 of 9.
Regarding `CCCCCC(O)C1C(=O)OC(C)C(O)/C=C/C=C/C=C/C=C/C=C(\C)C(O)C(O)C(O)CC(O)CC(O)CC(O)CC(O)CC1O` (stereo not given), for the setting “dose: 2.0 mg/kg/injection, vehicle: other”, the T/C was 136 % of control. The survivor count (dose: 6.25 mg/kg/injection, vehicle: saline) is listed as 9 of 9.
`CNC(=O)Oc1ccc[nH]c1=O`: the survivor count (dose: 512.0 mg/kg/injection, vehicle: saline with Tween-80) is 6 of 10.
In the case of `c1cc(OCC2CO2)ccc1OCC1CO1` (stereo not given), the T/C under setting [7] is 133 % of control. Also, the survivor count by setting is: under setting [5], 7 of 10; under setting [6], 0 of 10.
Take `CN(C)P(=O)(Oc1ccccc1)N(C)C`: the survivor count under setting [2] is 8 of 10 and 9 of 10.
On the same count and under the same terms, for `Brc1ccc(C[N+]23CN4CN(CN(C4)C2)C3)cc1` the value was 0 of 10.
As to `BrC1CC(Br)c2c1c1c(c3c2C(Br)CC3Br)C(Br)CC1Br` (stereo not given), the T/C by setting is: (dose: 50.0 mg/kg/injection, vehicle: saline with Tween-80, evaluated on day 45) 130 % of control; (dose: 50.0 mg/kg/injection, vehicle: saline with Tween-80, evaluated on day 60) 125 % of control; under setting [4], 132 % of control; under setting [1], 147 % of control. The survivor count by setting is: under setting [1], 10 of 10; under setting [2], 8 of 10 and 10 of 10 (2×).
For `O=C(NC(Cc1ccccc1)C(=O)O)OCc1ccccc1` (stereo not given), the survivor count under setting [5] was 6 of 10.
For `O=C(Nc1ccccc1CCl)Nc1ccccc1CCl`, the survivor count under setting [2] is 7 of 10.
With `COc1cc2cc3c(c(O)c2c(O)c1/C=C/C(C)C)C(=O)CC(C)(OC(C)=O)C3` (stereo not given), the T/C (dose: 5.0 mg/kg/injection, vehicle: Klucel (hydroxypropylcellulose) (HPC)) was 133 and 148 % of control. Besides, the survivor count (dose: 10.0 mg/kg/injection, vehicle: Klucel (hydroxypropylcellulose) (HPC)) is given as 10 of 10.
In the case of `O=CC(=O)c1ccc(O)cc1`, the survivor count is reported as 5 of 10 (dose: 100.0 mg/kg/injection, vehicle: saline) and 2 of 10 (dose: 200.0 mg/kg/injection, vehicle: saline).
With `Cc1ccc2c(c1)C1(C)OC(C=CC1=O)O2` (stereo not given), the survivor count is 8 of 10 and 9 of 10 under setting [7]; 0 of 10 (dose: 100.0 mg/kg/injection, vehicle: Klucel (hydroxypropylcellulose) (HPC)); 0 of 10 under setting [5]; 0 of 10 under setting [6].
For the compound `CCSc1ncnc2c1ncn2C1OC(CO)C(O)C1O` (stereo not given), the survivor count was 10 of 10 under setting [1] and 6 of 10 under setting [2].
Regarding `NCCCCC(NC(=O)OCC1c2ccccc2-c2ccccc21)C(=O)O` (stereo not given), the survivor count by setting is: under setting [5], 10 of 10; under setting [6], 10 of 10.
On to `Cc1cc(NC(=S)SCc2ccc3c(c2)OCO3)ccc1Cl`, for which the survivor count is given as 5 of 10 under setting [5] and 0 of 10 under setting [6].

The values above are taken from PubChem BioAssay AID200 (DTP/NCI, 2004).
